# The list shows a part of the results. Repeats are few or missing, and single values can be far off.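 Imaging used 1,536-well plates; nuclei positive for cleaved PARP by antibody were divided by total DNA-stained nuclei to yield the apoptosis fraction. Doses for screening kept most cells viable, and cell lines differ markedly in resting and induced cleaved-PARP levels.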
# What was measured:
# Test in all cases: cleaved PARP positive nuclei fraction relative to DMSO control; melanoma cells; higher = more apoptosis
# Details in all cases: library dose: low library concentration; 72 h
# MZ2-MEL = system: MZ2-MEL
# MeWo = system: MeWo
# RPMI7951 = system: RPMI7951
# RVH-421 = system: RVH-421
# SkMel28 = system: SkMel28
# SkMel2 = system: SkMel2
# SkMel30 = system: SkMel30
# SkMel5 = system: SkMel5
# UACC257 = system: UACC257
# UACC62 = system: UACC62
# WM115 = system: WM115
# WM1716 = system: WM1716
# WM1745 = system: WM1745
# WM3526 = system: WM3526
# WM3619 = system: WM3619
# WM451Lu = system: WM451Lu
Structure (SMILES),cleaved PARP positive nuclei fraction (MZ2-MEL),cleaved PARP positive nuclei fraction (MeWo),cleaved PARP positive nuclei fraction (RPMI7951),cleaved PARP positive nuclei fraction (RVH-421),cleaved PARP positive nuclei fraction (SkMel28),cleaved PARP positive nuclei fraction (SkMel2),cleaved PARP positive nuclei fraction (SkMel30),cleaved PARP positive nuclei fraction (SkMel5),cleaved PARP positive nuclei fraction (UACC257),cleaved PARP positive nuclei fraction (UACC62),cleaved PARP positive nuclei fraction (WM115),cleaved PARP positive nuclei fraction (WM1716),cleaved PARP positive nuclei fraction (WM1745),cleaved PARP positive nuclei fraction (WM3526),cleaved PARP positive nuclei fraction (WM3619),cleaved PARP positive nuclei fraction (WM451Lu)
"Cc1cc(Nc2cc(N3CCN(C)CC3)nc(/C=C/c3ccccc3)n2)n[nH]1 + c1cc(-c2cnn3cc(-c4ccc(OCCN5CCCCC5)cc4)cnc23)ccn1 [Dorsomorphin] (first compound 0.04 µM, partner dose 0.4 µM)",166%,71.2%,134%,29.9%,39.9%,63.7%,122%,101%,42.4%,92%,92.3%,417%,102%,68.6%,67.2%,47.2%
"CNC(=O)c1cc(Oc2ccc(NC(=O)Nc3ccc(Cl)c(C(F)(F)F)c3)cc2)ccn1 [sorafenib] + CC(C)(C)c1cnc(CSc2cnc(NC(=O)C3CCNCC3)s2)o1 [SNS-032] (first compound 0.4 µM, partner dose 0.01 µM)",92.6%,69.9%,77.6%,108%,29.8%,179%,130%,89.1%,46.4%,55%,131%,110%,100%,120%,115%,111%
"CNC(=O)c1cc(Oc2ccc(NC(=O)Nc3ccc(Cl)c(C(F)(F)F)c3)cc2)ccn1 [sorafenib] + CCCCCCCCCCCC1=C(O)C(=O)C=C(O)C1=O [Embelin] (first compound 0.4 µM, partner dose 1.2 µM)",148%,61.6%,312%,135%,106%,131%,88.2%,70.9%,94.1%,74.4%,65.2%,110%,95.2%,162%,93%,105%
"CCCS(=O)(=O)Nc1ccc(F)c(C(=O)c2c[nH]c3ncc(Cl)cc23)c1F + Oc1cc(-c2nc(-c3ccccc3)[nH]c2-c2ccncc2)ccc1Cl [L779450] (first compound 0.08 µM, partner dose 0.2 µM)",121%,37.5%,30.2%,188%,203%,86.3%,111%,76.1%,284%,186%,91.3%,71.3%,101%,132%,120%,149%
"O=C(O)c1ccc2c(c1)nc(Nc1cccc(Cl)c1)c1ccncc12 + O=C1NC(=O)/C(=C/c2ccc(-c3ccc(F)cc3O)o2)S1 [AS252424] (first compound 0.4 µM, partner dose 1 µM)",185%,95.8%,170%,82.5%,99.2%,72.4%,70.6%,177%,163%,126%,108%,124%,106%,250%,87.2%,67.4%
"Nc1ncn([C@H]2C[C@H](O)[C@@H](CO)O2)c(=O)n1 [decitabine] + Oc1nc(-c2ccc(C(F)(F)F)cc2)nc2c1CSCC2 [XAV939] (first compound 0.1 µM, partner dose 2 µM)",121%,115%,58.3%,23.1%,106%,115%,121%,86.2%,255%,215%,122%,236%,107%,62.5%,108%,177%
"Cn1c(=O)n(-c2ccc(C(C)(C)C#N)cc2)c2c3cc(-c4cnc5ccccc5c4)ccc3ncc21 + O=C(Nc1cccc(Cl)c1)Nc1ncc(CCNc2ncnc3ccsc23)s1 [SNS314] (first compound 0.004 µM, partner dose 0.0008 µM)",172%,62%,100%,135%,94%,132%,190%,140%,55.9%,131%,198%,98.7%,105%,72.5%,105%,64.1%
"O=C(O)[C@@H]1[O][Sb](=[O])([O][Sb]2(=[O])[O][C@H]([C@H](O)CO)[C@H](O)[C@H](C(=O)O)[O]2)[O][C@H]([C@H](O)CO)[C@@H]1O (some centres undefined) [stibogluconate] + Oc1nc(-c2ccc(C(F)(F)F)cc2)nc2c1CSCC2 [XAV939] (first compound 2 µM, partner dose 2 µM)",76.1%,150%,79.4%,152%,89.1%,115%,135%,193%,175%,63%,114%,472%,277%,63.9%,108%,39.3%
"CNC(=O)c1cc(Oc2ccc(NC(=O)Nc3ccc(Cl)c(C(F)(F)F)c3)cc2)ccn1 [sorafenib] + CCN(CC)CCCCNc1ncc2cc(-c3cc(OC)cc(OC)c3)c(NC(=O)NC(C)(C)C)nc2n1 [PD173074] (first compound 0.4 µM, partner dose 0.1 µM)",128%,36.3%,107%,215%,64.8%,58.6%,254%,81.8%,40.4%,93.7%,69.9%,118%,87.6%,67.6%,105%,39.6%

# Source: the supplement of paper PMC4604168 (melanoma cell lines)
